{"sequences": {"note": "The chains behind the UniProt entries cited, without tags or fusion partners.", "UniProt Q9H1D9": "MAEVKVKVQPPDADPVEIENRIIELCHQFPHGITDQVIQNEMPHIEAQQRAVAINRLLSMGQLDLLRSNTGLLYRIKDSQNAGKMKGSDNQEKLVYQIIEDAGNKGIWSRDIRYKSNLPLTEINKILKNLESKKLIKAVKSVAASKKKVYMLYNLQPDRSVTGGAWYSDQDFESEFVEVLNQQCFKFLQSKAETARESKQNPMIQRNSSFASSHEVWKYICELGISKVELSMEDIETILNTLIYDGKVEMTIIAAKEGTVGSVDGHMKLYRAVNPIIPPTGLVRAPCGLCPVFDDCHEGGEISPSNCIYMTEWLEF"}, "source": "paper doi:10.1101/535831", "target": "HaloTag-POLR3F (human) (UniProt Q9H1D9)", "assay": "pull-down", "note": "These are yes or no findings as the source states them, for the method shown. Binding seen in cells or lysates may run through a third protein. Some binding calls cover weakened binding; strength is not graded here."}
{"binder": "RNA polymerase III catalytic subunit (POLR3A) (protein, UniProt O14802 1-1390) MVKEQFRETDVAKKISHICFGMKSPEEMRQQAHIQVVSKNLYSQDNQHAPLLYGVLDHRMGTSEKDRPCETCGKNLADCLGHYGYIDLELPCFHVGYFRAVIGILQMICKTCCHIMLSQEEKKQFLDYLKRPGLTYLQKRGLKKKISDKCRKKNICHHCGAFNGTVKKCGLLKIIHEKYKTNKKVVDPIVSNFLQSFETAIEHNKEVEPLLGRAQENLNPLVVLNLFKRIPAEDVPLLLMNPEAGKPSDLILTRLLVPPLCIRPSVVSDLKSGTNEDDLTMKLTEIIFLNDVIKKHRISGAKTQMIMEDWDFLQLQCALYINSELSGIPLNMAPKKWTRGFVQRLKGKQGRFRGNLSGKRVDFSGRTVISPDPNLRIDEVAVPVHVAKILTFPEKVNKANINFLRKLVQNGPEVHPGANFIQQRHTQMKRFLKYGNREKMAQELKYGDIVERHLIDGDVVLFNRQPSLHKLSIMAHLARVKPHRTFRFNECVCTPYNADFDGDEMNLHLPQTEEAKAEALVLMGTKANLVTPRNGEPLIAAIQDFLTGAYLLTLKDTFFDRAKACQIIASILVGKDEKIKVRLPPPTILKPVTLWTGKQIFSVILRPSDDNPVRANLRTKGKQYCGKGEDLCANDSYVTIQNSELMSGSMDKGTLGSGSKNNIFYILLRDWGQNEAADAMSRLARLAPVYLSNRGFSIGIGDVTPGQGLLKAKYELLNAGYKKCDEYIEALNTGKLQQQPGCTAEETLEALILKELSVIRDHAGSACLRELDKSNSPLTMALCGSKGSFINISQMIACVGQQAISGSRVPDGFENRSLPHFEKHSKLPAAKGFVANSFYSGLTPTEFFFHTMAGREGLVDTAVKTAETGYMQRRLVKSLEDLCSQYDLTVRSSTGDIIQFIYGGDGLDPAAMEGKDEPLEFKRVLDNIKAVFPCPSEPALSKNELILTTESIMKKSEFLCCQDSFLQEIKKFIKGVSEKIKKTRDKYGINDNGTTEPRVLYQLDRITPTQVEKFLETCRDKYMRAQMEPGSAVGALCAQSIGEPGTQMTLKTFHFAGVASMNITLGVPRIKEIINASKAISTPIITAQLDKDDDADYARLVKGRIEKTLLGEISEYIEEVFLPDDCFILVKLSLERIRLLRLEVNAETVRYSICTSKLRVKPGDVAVHGEAVVCVTPRENSKSSMYYVLQFLKEDLPKVVVQGIPEVSRAVIHIDEQSGKEKYKLLVEGDNLRAVMATHGVKGTRTTSNNTYEVEKTLGIEAARTTIINEIQYTMVNHGMSIDRRHVMLLSDLMTYKGEVLGITRFGLAKMKESVLMLASFEKTADHLFDAAYFGQKDSVCGVSECIIMGIPMNIGTGLFKLLHKADRDPNPPKRPLIFDTNEFHIPLVT", "values": [{"measurement": "binding", "value": "binds"}]}
